Key:
[1] = Line edge evaluated at 50x magnification; design: key: 1: acceptable for use; ratings of "2" to "4" indicate fuzzier line edges; 3: ratings of "2" to "4" indicate fuzzier line edges; ratings of "2" to "4" indicate fuzzier line edges; details: rating at 50x magnification
Excerpt: (§1) The emulsion used is a monodispersed cubic AgClBr (70 mole % chloride) type with an area equivalent diameter of 0.2 μm. It is internally rhodium doped with sodium hexachlororhodate at 0.109 ppm rhodium based on silver. The emulsion is coated at 3.6 g Ag/M^2 on a polyester base. Gelatin content is 2.85 g/m^2 with 0.61 g/m^2 latex (a polyacrylate with sulfate, hydroxyl and carboxyl groups). The emulsion is sulfur and gold ripened and sensitized with 3-ethyl-2[3-(3'-ethyl-2-(4,5-disubstituted benzothiazolinylidene)-1-propenyl]-4,5-disubstituted benzothiazolium iodide (44.29 mg/mole Ag) and 2-([5,5-dimethyl-3-((5-(3-substituted-thioxo-4-thiazolidinonyl))ethylidenyi)-2-cyclohexen-1-ylidene]methyl)-3-substituted benzothiazolium salt (17.59 mg/mole Ag). The pAg is adjusted with NaCl and the emulsion is stabilized with triazaindolizine and phenylmercaptoterazole. The emulsion layer is overcoated with a gelatin layer containing a silica matting agent, hydroquinone, Dimezon S, sodium metabisulfate, a slippage agent and coating aid. The hydrazide is added to the emulsion (or adjacent layer) as a DMF/water solution at a level of 3 mmol/mole of silver.
(§2) The coated film samples were exposed on an Aerodyne Microsecond Laser Sensitometer, with a laser wavelength of 633 nanometers and having a beamwidth of 50 microns. The exposure was a series of adjacent parallel lines with a center-to center stepover spacing of 62 microns. The laser light was modulated by a step wedge of 21 steps each of 0.075 density units increments.
(§3) The exposed film was processed in a Polychrome processor at 35° C. for 35 seconds in a developer of the following composition:
(§4) The above concentrate is diluted with two equal parts of water to obtain a working developer solution with a working pH of 10.4. After fixing, washing and drying the strips were read on a Macbeth TR927 densitometer through a 3 mm aperture with light filtered to visual.
(§5) In the examples that follow, a comparison is made between the preferred hydrazide of the present invention and structurally related hydrazides. An emulsion is prepared using the procedure described above with an emulsion using hydrazides having Formula 3, described in Table 1. The film is exposed and developed as described in Example 2. The films are evaluated for speed, screen range, line edge, and pepper.
4.) Line edge is evaluated at 50x magnification. A rating of "1" is
acceptable for use while ratings of "2" to "4" indicate fuzzier line
(§6) The speed reported is relative, based on the speed (100) of Compound 4 at a hydrazide level of 0.23 mmol/mol Ag. The line edge is evaluated at 50× magnification. A rating of "1" is acceptable for use while ratings of "2" to "4" indicate fuzzier line edges. Pepper is evaluated at 50× magnification. Strips were clear processed for 35 sec at 95° F. The average count in 5 fields is given. The field size is 2.5 mm. An average count of greater than 6 is rejectable.

[2] = Pepper evaluated at 50x magnification; details: average count in 5 fields, field size 2.5 mm^2, >6 rejectable
Excerpt: as §1, §2, §3, §4, §5
5.) Pepper is evaluated at 50x magnification. The average count in 5
fields is given. The field size is 2.5 mm^2. An average count of
greater than 6 is rejectable.
as §6

| Structure (SMILES) | LINE EDGE ([1]; 0.16 mmol/mol Ag) | LINE EDGE ([1]; 0.20 mmol/mol Ag) | LINE EDGE ([1]; 0.23 mmol/mol Ag) | LINE EDGE ([1]; 0.29 mmol/mol Ag) | LINE EDGE ([1]; 0.51 mmol/mol Ag) | PEPPER ([2]; 0.16 mmol/mol Ag) | PEPPER ([2]; 0.20 mmol/mol Ag) | PEPPER ([2]; 0.23 mmol/mol Ag) | PEPPER ([2]; 0.29 mmol/mol Ag) | PEPPER ([2]; 0.51 mmol/mol Ag) |
| --- | --- | --- | --- | --- | --- | --- | --- | --- | --- | --- |
| CCCCC(CCCC)c1cc[n+](CC(=O)Nc2ccc(S(=O)(=O)Nc3ccc(NNC(=O)C(=O)NCC)c(C)c3)cc2)cc1 [Compound 3] | 4 | 3 | 3 | 3 | 1 | 0 | 0 | 0 | 3 | 3 |
| CCCCC(CCCC)c1cc[n+](CC(=O)Nc2ccc(S(=O)(=O)Nc3ccc(NNC(=O)C(=O)NCC)cc3)cc2)cc1 [Compound 4] | 4 | 4 | 2 | 1 | 1 | 0 | 0 | 0 | 0 | 2 |
| CCCCC(CCCC)c1cc[n+](CC(=O)Nc2ccc(S(=O)(=O)Nc3ccc(NNC(=O)C(=O)NCCO)c(C)c3)cc2)cc1 [IV] | 2 | 1 | 1 | 1 | 1 | 1 | 2 | 1 | 2 | 30 |
| CCCCC(CCCC)c1cc[n+](CC(=O)Nc2ccc(S(=O)(=O)Nc3ccc(NNC(=O)C(=O)NCCO)cc3)cc2)cc1 [XI] | 1 | 1 | 1 | 1 | 1 | 3 | 0 | 1 | 1 | 80 |
